Data from article PMC8626312, “In vitro assembly complex formation of TRAIP CC and RAP 80 zinc finger motif revealed by our study” (Saudi Journal of Biological Sciences, 2021).
These are yes or no findings as the source states them, for the method shown.

Target: T1, RAP80 zinc finger (490–584 aa) (human) (UniProt Q96RL1)
T1 sequence: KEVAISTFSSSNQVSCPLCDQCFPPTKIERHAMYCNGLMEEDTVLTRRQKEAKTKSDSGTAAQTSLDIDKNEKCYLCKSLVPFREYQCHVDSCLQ
Assay: SEC; purified proteins mixed in a molar ratio of approximately 1:1, pre-incubated 30 min at 4 °C, Superdex 200 HR 10/30, 20 mM Tris-HCl pH 8.0, 150 mM NaCl; fractions on SDS-PAGE; both purified

binding: no binding
B1: TRAIP RINGCC (1-157aa) (domain or fragment, human, UniProt Q9BWF2 1-157, looked up)
chain: MPIRALCTICSDFFDHSRDVAAIHCGHTFHLQCLIQWFETAPSRTCPQCRIQVGKRTIINKLFFDLAQEEENVLDAEFLKNELDNVRAQLSQKDKEKRDSQVIIDTLRDTLEERNATVVSLQQALGKAEMLCSTLKKQMKYLEQQQDETKQAQEEAR
notes: the methods name pET24a with a C-terminal His6; One sentence of the results prints 1–517; also called TRAIP-5; TRAIP RINGCC (1–517); source: E. coli BL21 (DE3), purified (Ni-NTA, SEC)
